The source of these data is PubChem BioAssay AID2685 (National Center for Advancing Translational Sciences (NCATS), 2010).

This assay can be described thus: qHTS Assay for Lipid Storage Modulators in Drosophila S3 Cells.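 On cell number change: cells counted by Cell Tracker Red CMTPX staining in the red channel.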 As to conditions: BODIPY lipid droplet fluorescence, 18-24 h; for cell number change: measured here: cell count max response, cells fed with added oleic acid. Put shortly: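 Laser-scanning cytometry quantifies lipid droplet accumulation (500–530 nm total intensity; droplet/cell object ratio) in oleic acid-fed (400 uM added) Drosophila S3 cells treated with a concentration series. 20 uM Triacsin C defined 100% inhibition.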

Where [1] appears, read: measured here: lipid fluorescence (Fed channel) AC50, cells fed with added oleic acid.
Setting [2] is: measured here: cell number channel AC50, cells fed with added oleic acid.

Some of the results follow. Shown are side measurements of this screen, not its main read-out; they come without a call. Most of these compounds were active or inconclusive in the main read-out, so they are no random draw. The note in brackets gives the kind of curve behind each potency; many fits are weak.

What is called AC50 is the midpoint of the concentration-response curve, whichever way the signal moves. `Cc1ccc(-n2ccnc2SCC(=O)O)cc1C`: the cell number change came out at 1.29%. Under setting [1], the AC50 was 6.51 µM [falling, single point].

For `COC(=O)c1ccncc1C(=O)Nc1ccc(OC)cc1`, the cell number change came to 4.15%. The AC50 under setting [1] is 29.1 µM [falling, partial curve].

As to `O=C(COc1ccc(Cl)cc1)N/N=C/c1cccc2cccnc12`, the cell number change is -13.8%.

With `CCOC(=O)c1cc(-c2ccc(OC(F)F)cc2)nc2c1c(=O)[nH]c(=O)n2C`, the cell number change was -25%.

`CCN(CC(=O)Nc1ccc(NC(C)=O)cc1)C(=O)c1cc(-c2ccccc2)nn1-c1ccccc1`: the cell number change was found to be 30.9%. For the same molecule, the AC50 under setting [2] is 13 µM [rising, single point]. In addition, under setting [1], the AC50 is 20.6 µM [rising, partial curve, poor fit].

`COc1ccc2oc(-c3ccc(C)c(NC(=O)c4ccc(N5CCOCC5)c([N+](=O)[O-])c4)c3)nc2c1`: the AC50 by setting is: under setting [2], 0.517 µM [falling, full curve]; under setting [1], 1.64 µM [falling, partial curve].

Take `CCOC(=O)c1ccc(Nc2ncnc3ccc(C)cc23)cc1`: the cell number change is 6.9%. Moreover, the AC50 under setting [1] is 6.51 µM [rising, single point].

For the molecule `O=C(CN1CCN(C(=O)C2CCCO2)CC1)Nc1ccc(Cl)c(Cl)c1` (centres undefined), the cell number change came out at 6.91%. Also, the concentration at half-maximal activity (AC50) under setting [1] was 0.58 µM [rising, single point].

Turning to `COc1ccc(-c2nnc3sc(-c4ccco4)nn23)cc1OC`, the cell number change was -28.5%.

Consider `CCCOc1ccc(C(C)=O)cc1CC(C(N)=O)C(N)=O`, for which the cell number change is -32.7%. Further, the AC50 under setting [2] is 4.61 µM [falling, full curve, poor fit]. Moreover, the AC50 under setting [1] is 29.1 µM [falling, single point].

With `O=C(Nc1ccnn1C1CCN(C(=O)Cc2cccc(Cl)c2)CC1)C1CC1`, the cell number change was 6.93%. For the same molecule, the AC50 under setting [1] was 0.58 µM [falling, single point].

With `CCCCN1C(C)=CC(=C2C(=O)c3ccccc3C2=O)C=C1C`, the cell number change amounted to 38%. The concentration at half-maximal activity (AC50) under setting [2] was 29.1 µM [rising, single point].

Consider `CC1CC(C)CN(C(=O)C2CCN(S(=O)(=O)c3cccc4cccnc34)CC2)C1` (centres undefined), for which, under setting [1], the AC50 is 29.1 µM [rising, single point].

As for `CCN(CC)S(=O)(=O)c1cccc(-c2nnc(-c3ccc(C)cc3)o2)c1`, the cell number change stood at 5.24%. Further, under setting [1], the AC50 was 6.51 µM [rising, single point].

Consider `CCCCCC1CC(=O)N(Cc2ccc(Cl)cc2)C(=O)N1` (centres undefined), for which the cell number change was -6.05%.

For the molecule `COc1ccc(N2C(=O)CC(n3c(CCCCO)nc4ccccc43)C2=O)cc1` (centres undefined), the cell number change stood at 12.1%. For the same molecule, the half-maximal activity concentration (AC50) under setting [1] was 14.6 µM [rising, single point].

On to `O=C(Nc1ccc(Cl)cc1)c1csc(Cc2ccccc2)n1`, for which the cell number change is -36.5%. Besides, the AC50 under setting [2] was 5.17 µM [falling, single point]. Under setting [1], the AC50 is 3.26 µM [falling, single point].

Turning to `O=C(CC1(O)C(=O)Nc2ccccc21)c1ccccc1` (centres undefined), the cell number change is -48%. Also, the AC50 under setting [2] was 3.26 µM [falling, full curve, poor fit]. The AC50 under setting [1] is 4.61 µM [falling, full curve].

`COCC1CCN(Cc2nc(-c3cccs3)no2)C1` (centres undefined): the cell number change was found to be 2.89%.

On to `O=C(COc1ccccc1Br)c1ccc2c(c1)OCO2`, for which the cell number change is 25%.

Turning to `COc1ccc(-c2c(C#Cc3ccccc3)c3ccccc3n2C)cc1`, the cell number change was -17.7%.

For the molecule `CCOC(=O)N1CCC(NC(=O)c2cc(S(=O)(=O)N3CCOCC3)ccc2F)CC1`, the cell number change came to 6.09%. Besides, the AC50 under setting [2] was 1.16 µM [falling, single point].

On to `COc1ccc(-c2ccc(NC(=O)c3ccc(Br)o3)cc2)nn1`, for which the cell number change is 36.9%. Also, under setting [2], the AC50 was 0.411 µM [rising, full curve, poor fit].

As for `O=C1C(c2ccc(F)cc2)N(Cc2ccc3c(c2)OCO3)C(=O)CN1C1CCCC1` (centres undefined), the cell number change worked out at 6.73%. For the same molecule, the AC50 under setting [1] was 1.64 µM [rising, partial curve].

As for `O=C(CCC(=O)N1CCN(S(=O)(=O)c2ccc(Cl)cc2)CC1)Nc1ccc2ccccc2c1`, the cell number change worked out at 17.6%. Moreover, the AC50 under setting [1] was 8.2 µM [rising, partial curve].

On to `Cn1nc(C(F)(F)F)c(C#N)c1N1CCN(c2ccccc2)CC1`, for which the cell number change was found to be 38.7%. The AC50 under setting [2] was 0.58 µM [rising, full curve, poor fit].

On to `COc1ccccc1-n1c(C)nnc1SCC(=O)Nc1cc(C)cc(C)c1`, for which the AC50 runs as follows: under setting [2], 0.231 µM [rising, full curve, poor fit]; under setting [1], 0.291 µM [rising, full curve, poor fit].

Consider `COc1ccc(CNC(=O)CN(C2CCCCC2)S(C)(=O)=O)cc1`, for which the cell number change was -31.8%. The AC50 under setting [2] was 20.6 µM [falling, partial curve]. Moreover, the AC50 under setting [1] is 1.3 µM [falling, partial curve, poor fit].

Regarding `O=C(COC(=O)CC1CC2CCC1C2)Nc1cc([N+](=O)[O-])ccc1F` (centres undefined), the cell number change was -34%. For the same molecule, the concentration at half-maximal activity (AC50) under setting [2] was 16.4 µM [falling, single point].

`CC1CCN(C(=O)c2ccc(S(=O)(=O)N(C)C)cc2)C(C)C1` (centres undefined): the cell number change was -74.8%. Moreover, under setting [2], the AC50 was 29.1 µM [falling, single point].

`CN(CC(=O)NCCN1CCN(c2ccccc2)CC1)S(=O)(=O)c1ccc2c(c1)CCC(=O)N2`: the cell number change came out at 3.78%. Further, under setting [1], the AC50 was 6.51 µM [falling, single point].

Take `Cc1cc(Br)ccc1OCC(=O)NC1CCCC1`: the cell number change is -8.91%. Also, the AC50 under setting [2] is 0.146 µM [rising, full curve, poor fit].

Take `O=C(N/N=C/c1ccc[nH]1)c1ccc2c(c1)OCO2`: under setting [2], the concentration at half-maximal activity (AC50) is 1.84 µM [rising, partial curve].

As to `Cc1ccc(C(=O)NC(C)(COc2nonc2C)COc2nonc2C)cc1`, the cell number change is -5.29%. Under setting [1], the AC50 was 0.326 µM [rising, full curve].

On to `CCOc1ccc(-n2nnnc2SCC(=O)NC2CCCC2)cc1`, for which the cell number change is -21.8%. The AC50 under setting [1] is 5.8 µM [rising, partial curve, poor fit].

`CC(=O)c1c(C)[nH]c(C(=O)N2CCN(S(=O)(=O)c3ccc(C)cc3C)CC2)c1C`: the cell number change was -10.9%.

As to `CCN1C=C(Cc2ccc(F)cc2)C2=C(C1)C(c1ccc(F)cc1)C(C#N)=C(N)O2` (centres undefined), the AC50 under setting [2] was 2.06 µM [rising, single point].

Turning to `Cc1ccc(S(=O)(=O)Nc2cccc(C(=O)NCCCN3CCCC3=O)c2)cc1F`, the AC50 under setting [2] was 6.51 µM [rising, single point].

`Cc1[nH]c(=O)[nH]c(=O)c1S(=O)(=O)N1CCN(c2cccc(Cl)c2)CC1`: the cell number change was found to be 3.65%. Further, under setting [1], the AC50 was 0.0058 µM [rising, full curve, poor fit].

Take `O=C(NCCOc1ccccc1)C(c1ccccc1)c1ccccc1`: the cell number change amounted to 156%. Besides, the AC50 under setting [2] is 13 µM [rising, partial curve].

`CC1=NN(C(=O)Cc2ccc(C)cc2)C(O)(c2cccnc2)C1` (centres undefined): the cell number change is 17.6%. Under setting [1], the AC50 is 11.6 µM [rising, partial curve, poor fit].

Consider `N#Cc1cc2c([nH]c1=S)CCCCCC2`, for which the cell number change was 1.55%. For the same molecule, under setting [1], the AC50 is 29.1 µM [rising, single point].

Take `Cc1c(/C=N/NC(=O)c2ccc(O)cc2)c2ccccn2c1C(=O)c1ccc(F)cc1`: the cell number change stood at 11.1%. For the same molecule, the AC50 under setting [2] was 6.51 µM [rising, single point]. In addition, the AC50 under setting [1] was 29.1 µM [rising, single point].

For the molecule `Cc1ccc(NS(=O)(=O)c2cc(C(=O)N3CCN(C)CC3)ccc2C)cc1`, the concentration at half-maximal activity (AC50) under setting [1] is 6.51 µM [falling, single point].

As for `O=S(=O)(Cc1ccccc1)Oc1ccccc1`, the cell number change was -12.4%. For the same molecule, the AC50 under setting [1] was 0.58 µM [rising, full curve, poor fit].

For `CCCN1C(=O)c2ccc(C(=O)Nc3ccc4c(c3)OCO4)cc2C1=O`, the cell number change turned out to be 14.4%. Also, under setting [1], the AC50 was 3.66 µM [rising, single point].

Turning to `O=C(NCCSCc1ccco1)Nc1ccc(Cl)cc1`, the cell number change turned out to be 82.3%. Also, the AC50 under setting [2] is 29.1 µM [rising, single point]. Under setting [1], the AC50 is 23.1 µM [rising, partial curve].

With `COc1ccccc1NC(=O)CSc1nnc(COc2ccc(Cl)cc2)o1`, under setting [1], the AC50 was 5.17 µM [falling, single point].

For `CC1=NOC(=O)/C1=C\c1ccc(-c2cc(Cl)ccc2Cl)o1`, the cell number change was -4.65%.

Take `COc1ccc(-c2csc(N(CCCN(C)C)C(=O)c3ccccc3C)n2)cc1`: the cell number change worked out at 15.1%.

Regarding `CCN(CC)c1cc(C)c2cc(NC(=O)c3ccc(Br)o3)ccc2n1`, the cell number change is -17.4%. Moreover, under setting [1], the AC50 was 2.91 µM [falling, full curve].

In the case of `COC(=O)c1c(NC(=O)CN2CCC3(O)CCCCC3C2c2cc(OC)ccc2OC)sc(C)c1C` (centres undefined), the cell number change worked out at 28.7%. The AC50 under setting [2] is 2.31 µM [rising, full curve, poor fit]. For the same molecule, the AC50 under setting [1] was 4.11 µM [rising, full curve].

As for `COc1ccc(NC(=O)Cc2ccsc2)cc1S(=O)(=O)N1CCCCC1`, the cell number change came to 3.62%. Also, the concentration at half-maximal activity (AC50) under setting [1] is 2.06 µM [rising, partial curve].

As for `COc1ccccc1OCCC(=O)OCC(=O)NCc1ccc(Cl)cc1`, the cell number change was -18.5%. For the same molecule, under setting [2], the AC50 was 4.11 µM [falling, partial curve]. The AC50 under setting [1] is 6.51 µM [falling, full curve].

With `O=C(c1ccc([N+](=O)[O-])o1)N1CCN(c2nc3ccc(F)cc3s2)CC1`, the cell number change came to 100%. In addition, the AC50 under setting [2] is 4.11 µM [rising, partial curve].

`C[C@]12C=CC(=O)C=C1CC[C@@H]1C2C(O)C[C@@]2(C)C1CC[C@]2(O)C(=O)COC(=O)CCC(=O)NC(CC(=O)O)C(=O)O` (some centres undefined): the cell number change is -9%. Under setting [1], the AC50 is 4.61 µM [falling, single point].

Consider `Cc1ccccc1CN1CCNC(=O)C1CC(=O)O` (centres undefined), for which the cell number change was -42%. Besides, the half-maximal activity concentration (AC50) under setting [2] was 20.6 µM [falling, partial curve, poor fit]. In addition, the AC50 under setting [1] is 20.6 µM [falling, partial curve].

As for `Cc1ccc(C2=NCCn3c2c2ccccc2[n+]3[O-])cc1`, the cell number change is 20.1%. For the same molecule, the AC50 under setting [2] was 0.146 µM [falling, full curve, poor fit]. In addition, under setting [1], the AC50 was 0.146 µM [falling, full curve, poor fit].

On to `Cc1ccc(C(=O)NC(NC(=S)Nc2ccc(S(N)(=O)=O)cc2)C(Cl)(Cl)Cl)cc1` (centres undefined), for which the cell number change was 159%. In addition, the AC50 under setting [2] was 20.6 µM [rising, single point]. In addition, under setting [1], the AC50 was 29.1 µM [rising, single point].
